Source: PubChem BioAssay AID1671195 (Yale University, 2021)

Assay: 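Genes whose knockdown alters LDL uptake in liver cancer cells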 (primary screen)
Cells: human Huh7 hepatoma cells
Knock-down reagent: siRNA pool against human genes, 18 nM
Duration: about 2 to 2.5 days of knockdown, then 8 h LDL uptake
Conditions: DiI-labelled LDL at 30 µg/ml for 8 h, in lipoprotein-deficient serum medium
Read-out: 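Fluorescent LDL signal imaged in cells, scaled to the plate median, robust z-score for each replicate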
Reading the numbers: robust z-score: higher = more LDL uptake after knockdown
Active means: 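a gene counts as active if at least two replicate z-scores exceed ±2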
The whole screen tested about 22,000 reagents; below is an unselected part. About 1,510 of them (6.9%) count as active. 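Active includes knockdowns raising or lowering LDL uptake; positive z-scores mean more uptake, negative mean less.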 A number with no mark means an inactive call.

| target | robust z-score, replicate 1 | robust z-score, replicate 2 | robust z-score, replicate 3 |
| --- | --- | --- | --- |
| OR9G4 (olfactory receptor family 9 subfamily G member 4) | 1.28 | 1.58 | 1.34 |
| ZDHHC5 (zDHHC palmitoyltransferase 5) | 1.47 (active) | 2.17 | 1.98 |
| LOC440558 (retired record) | -0.0157 | 0.0332 | 0.218 |
| GTF2E1 (general transcription factor IIE subunit 1) | 0.429 | 0.44 | 0.302 |
| SMAP1 (small ArfGAP 1) | 2.54 (active) | 2.63 | 2.21 |
| EXOC3 (exocyst complex component 3) | -1.46 | -2.34 | -1.36 |
| CIBAR1P1 (CIBAR1 pseudogene 1) | 0.179 | 0.405 | -0.456 |
| PI4K2A (phosphatidylinositol 4-kinase type 2 alpha) | -0.626 | -0.227 | -0.677 |
| IL1RAPL1 (interleukin 1 receptor accessory protein like 1) | 0.345 | 0.262 | 0.523 |
| PDHA1 (pyruvate dehydrogenase E1 subunit alpha 1) | 1.71 | 2.27 | 1.02 |
| ZNF180 (zinc finger protein 180) | -1.07 | -0.392 | -1.15 |

Records listed so far whose target name begins with Z or z:
| target | robust z-score, replicate 1 | robust z-score, replicate 2 | robust z-score, replicate 3 |
| --- | --- | --- | --- |
| ZDHHC5 (zDHHC palmitoyltransferase 5) | 1.47 (active) | 2.17 | 1.98 |
| ZNF180 (zinc finger protein 180) | -1.07 | -0.392 | -1.15 |

Next reagents follow.
| target | robust z-score, replicate 1 | robust z-score, replicate 2 | robust z-score, replicate 3 |
| --- | --- | --- | --- |
| CRY2 (cryptochrome circadian regulator 2) | -0.9 | 0.41 | -0.383 |
| TTC31 (tetratricopeptide repeat domain 31) | -0.752 | -1.24 | -0.353 |
| COPS5 (COP9 signalosome subunit 5) | 0.393 | 0.655 | 0.896 |
| LOC400623 (retired record) | 0.769 | 0.895 | 1.29 |
| ARMC10P1 (armadillo repeat containing 10 pseudogene 1) | -0.73 | -0.757 | -0.653 |
| IFITM3P9 (IFITM3 pseudogene 9) | -1.06 | -0.775 | -0.761 |
| KIR3DX1 | -1.81 | -1.88 | -1.5 |
| KCNH2 (potassium voltage-gated channel subfamily H member 2) | -0.00116 | 0.292 | 0.289 |
| CAPRIN1 (cell cycle associated protein 1) | 0.504 | 2.23 | 1.19 |
| PRR11 (proline rich 11) | 0.188 | 1.44 | -0.737 |
| ZNF530 (zinc finger protein 530) | -0.973 | -1.16 | -0.998 |
| METTL21EP (methyltransferase like 21E, pseudogene) | 3.46 (active) | 3.21 | 3.14 |
| CLDND1 (claudin domain containing 1) | 0.734 | 0.444 | 0.609 |
| MNAT1 (MNAT1 component of CDK activating kinase) | -0.365 | -0.229 | -0.667 |
| HLTF (helicase like transcription factor) | -1.48 | -1.89 | -1.74 |
| MRPL16 (mitochondrial ribosomal protein L16) | -0.305 | 0.795 | -0.994 |
| PHLDA3 (pleckstrin homology like domain family A member 3) | 1.09 | -0.327 | -0.0163 |
